The other results are listed elsewhere or left out.

By UniProt entry, the sequences of proteins in these tests, tags left out. Where a name states a change or a piece, a line headed by the entry shows the natural chain unless it says otherwise.
UniProt Q9Y2E5: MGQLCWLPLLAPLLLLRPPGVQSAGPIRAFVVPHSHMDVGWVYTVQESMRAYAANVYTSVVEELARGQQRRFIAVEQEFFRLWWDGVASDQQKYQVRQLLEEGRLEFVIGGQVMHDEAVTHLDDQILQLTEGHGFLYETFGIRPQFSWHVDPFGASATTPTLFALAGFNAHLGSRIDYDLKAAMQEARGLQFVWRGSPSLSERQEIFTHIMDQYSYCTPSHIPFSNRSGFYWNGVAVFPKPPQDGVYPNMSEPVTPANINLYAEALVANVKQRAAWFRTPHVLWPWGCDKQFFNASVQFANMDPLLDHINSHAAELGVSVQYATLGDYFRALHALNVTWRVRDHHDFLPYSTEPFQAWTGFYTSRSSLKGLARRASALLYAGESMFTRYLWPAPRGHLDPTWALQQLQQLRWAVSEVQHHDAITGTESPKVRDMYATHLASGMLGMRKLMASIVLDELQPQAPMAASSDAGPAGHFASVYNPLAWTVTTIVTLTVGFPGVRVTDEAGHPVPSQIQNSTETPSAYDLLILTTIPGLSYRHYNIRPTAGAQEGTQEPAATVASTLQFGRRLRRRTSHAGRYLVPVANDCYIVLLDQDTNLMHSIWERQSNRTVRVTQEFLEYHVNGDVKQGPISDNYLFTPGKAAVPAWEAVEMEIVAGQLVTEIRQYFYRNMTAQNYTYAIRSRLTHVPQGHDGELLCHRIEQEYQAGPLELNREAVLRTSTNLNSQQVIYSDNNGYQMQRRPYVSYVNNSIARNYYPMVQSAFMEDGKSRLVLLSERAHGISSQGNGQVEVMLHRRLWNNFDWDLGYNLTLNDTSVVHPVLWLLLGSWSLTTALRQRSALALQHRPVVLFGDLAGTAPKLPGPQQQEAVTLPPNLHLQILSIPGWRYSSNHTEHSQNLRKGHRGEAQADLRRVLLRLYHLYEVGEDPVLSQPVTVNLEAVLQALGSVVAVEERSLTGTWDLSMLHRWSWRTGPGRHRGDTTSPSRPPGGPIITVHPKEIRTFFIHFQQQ
UniProt Q7Z3D4: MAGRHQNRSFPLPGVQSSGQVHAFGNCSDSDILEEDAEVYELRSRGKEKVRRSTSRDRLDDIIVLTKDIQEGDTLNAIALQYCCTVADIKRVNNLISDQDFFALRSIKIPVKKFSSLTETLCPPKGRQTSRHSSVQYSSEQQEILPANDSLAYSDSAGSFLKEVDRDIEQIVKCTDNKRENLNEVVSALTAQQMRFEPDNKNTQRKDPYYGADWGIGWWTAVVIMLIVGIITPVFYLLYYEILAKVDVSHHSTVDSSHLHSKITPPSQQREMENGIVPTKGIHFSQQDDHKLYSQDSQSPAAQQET
UniProt Q9Y2U5: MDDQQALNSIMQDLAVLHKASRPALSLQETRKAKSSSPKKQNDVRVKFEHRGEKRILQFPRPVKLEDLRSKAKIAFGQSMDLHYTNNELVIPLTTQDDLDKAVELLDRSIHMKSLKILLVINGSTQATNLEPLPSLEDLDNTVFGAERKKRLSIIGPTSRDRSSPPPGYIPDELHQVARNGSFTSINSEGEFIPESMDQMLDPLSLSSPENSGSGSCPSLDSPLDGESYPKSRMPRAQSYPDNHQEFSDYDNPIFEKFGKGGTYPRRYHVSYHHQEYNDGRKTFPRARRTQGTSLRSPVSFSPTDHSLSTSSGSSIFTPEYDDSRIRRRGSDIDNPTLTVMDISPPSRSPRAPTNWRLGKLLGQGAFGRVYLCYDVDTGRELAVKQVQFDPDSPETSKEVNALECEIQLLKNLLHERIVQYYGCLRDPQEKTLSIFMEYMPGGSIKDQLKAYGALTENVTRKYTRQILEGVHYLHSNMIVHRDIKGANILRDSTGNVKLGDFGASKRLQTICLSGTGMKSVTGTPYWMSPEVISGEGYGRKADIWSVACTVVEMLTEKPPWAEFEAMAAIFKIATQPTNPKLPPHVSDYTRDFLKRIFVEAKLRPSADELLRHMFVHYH
UniProt Q9Y6D9: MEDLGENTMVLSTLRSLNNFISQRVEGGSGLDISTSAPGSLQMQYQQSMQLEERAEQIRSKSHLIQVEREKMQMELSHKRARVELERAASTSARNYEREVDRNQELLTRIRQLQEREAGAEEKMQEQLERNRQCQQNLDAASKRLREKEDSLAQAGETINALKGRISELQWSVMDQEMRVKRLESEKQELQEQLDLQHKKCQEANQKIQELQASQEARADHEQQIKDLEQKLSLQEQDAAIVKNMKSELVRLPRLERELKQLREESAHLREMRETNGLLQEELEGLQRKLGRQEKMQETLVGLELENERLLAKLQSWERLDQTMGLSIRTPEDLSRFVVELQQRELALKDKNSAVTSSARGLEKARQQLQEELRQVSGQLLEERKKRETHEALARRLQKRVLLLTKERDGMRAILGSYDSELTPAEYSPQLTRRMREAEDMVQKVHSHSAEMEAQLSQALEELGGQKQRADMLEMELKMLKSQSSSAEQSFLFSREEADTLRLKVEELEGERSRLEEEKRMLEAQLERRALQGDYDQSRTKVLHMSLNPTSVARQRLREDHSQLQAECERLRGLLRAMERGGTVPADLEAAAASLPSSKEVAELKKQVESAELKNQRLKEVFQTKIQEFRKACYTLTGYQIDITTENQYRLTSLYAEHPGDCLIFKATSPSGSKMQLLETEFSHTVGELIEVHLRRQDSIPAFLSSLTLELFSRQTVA
UniProt Q9Y4Y9: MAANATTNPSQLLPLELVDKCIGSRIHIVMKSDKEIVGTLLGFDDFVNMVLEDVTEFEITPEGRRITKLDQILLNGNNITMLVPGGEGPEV
UniProt Q99698: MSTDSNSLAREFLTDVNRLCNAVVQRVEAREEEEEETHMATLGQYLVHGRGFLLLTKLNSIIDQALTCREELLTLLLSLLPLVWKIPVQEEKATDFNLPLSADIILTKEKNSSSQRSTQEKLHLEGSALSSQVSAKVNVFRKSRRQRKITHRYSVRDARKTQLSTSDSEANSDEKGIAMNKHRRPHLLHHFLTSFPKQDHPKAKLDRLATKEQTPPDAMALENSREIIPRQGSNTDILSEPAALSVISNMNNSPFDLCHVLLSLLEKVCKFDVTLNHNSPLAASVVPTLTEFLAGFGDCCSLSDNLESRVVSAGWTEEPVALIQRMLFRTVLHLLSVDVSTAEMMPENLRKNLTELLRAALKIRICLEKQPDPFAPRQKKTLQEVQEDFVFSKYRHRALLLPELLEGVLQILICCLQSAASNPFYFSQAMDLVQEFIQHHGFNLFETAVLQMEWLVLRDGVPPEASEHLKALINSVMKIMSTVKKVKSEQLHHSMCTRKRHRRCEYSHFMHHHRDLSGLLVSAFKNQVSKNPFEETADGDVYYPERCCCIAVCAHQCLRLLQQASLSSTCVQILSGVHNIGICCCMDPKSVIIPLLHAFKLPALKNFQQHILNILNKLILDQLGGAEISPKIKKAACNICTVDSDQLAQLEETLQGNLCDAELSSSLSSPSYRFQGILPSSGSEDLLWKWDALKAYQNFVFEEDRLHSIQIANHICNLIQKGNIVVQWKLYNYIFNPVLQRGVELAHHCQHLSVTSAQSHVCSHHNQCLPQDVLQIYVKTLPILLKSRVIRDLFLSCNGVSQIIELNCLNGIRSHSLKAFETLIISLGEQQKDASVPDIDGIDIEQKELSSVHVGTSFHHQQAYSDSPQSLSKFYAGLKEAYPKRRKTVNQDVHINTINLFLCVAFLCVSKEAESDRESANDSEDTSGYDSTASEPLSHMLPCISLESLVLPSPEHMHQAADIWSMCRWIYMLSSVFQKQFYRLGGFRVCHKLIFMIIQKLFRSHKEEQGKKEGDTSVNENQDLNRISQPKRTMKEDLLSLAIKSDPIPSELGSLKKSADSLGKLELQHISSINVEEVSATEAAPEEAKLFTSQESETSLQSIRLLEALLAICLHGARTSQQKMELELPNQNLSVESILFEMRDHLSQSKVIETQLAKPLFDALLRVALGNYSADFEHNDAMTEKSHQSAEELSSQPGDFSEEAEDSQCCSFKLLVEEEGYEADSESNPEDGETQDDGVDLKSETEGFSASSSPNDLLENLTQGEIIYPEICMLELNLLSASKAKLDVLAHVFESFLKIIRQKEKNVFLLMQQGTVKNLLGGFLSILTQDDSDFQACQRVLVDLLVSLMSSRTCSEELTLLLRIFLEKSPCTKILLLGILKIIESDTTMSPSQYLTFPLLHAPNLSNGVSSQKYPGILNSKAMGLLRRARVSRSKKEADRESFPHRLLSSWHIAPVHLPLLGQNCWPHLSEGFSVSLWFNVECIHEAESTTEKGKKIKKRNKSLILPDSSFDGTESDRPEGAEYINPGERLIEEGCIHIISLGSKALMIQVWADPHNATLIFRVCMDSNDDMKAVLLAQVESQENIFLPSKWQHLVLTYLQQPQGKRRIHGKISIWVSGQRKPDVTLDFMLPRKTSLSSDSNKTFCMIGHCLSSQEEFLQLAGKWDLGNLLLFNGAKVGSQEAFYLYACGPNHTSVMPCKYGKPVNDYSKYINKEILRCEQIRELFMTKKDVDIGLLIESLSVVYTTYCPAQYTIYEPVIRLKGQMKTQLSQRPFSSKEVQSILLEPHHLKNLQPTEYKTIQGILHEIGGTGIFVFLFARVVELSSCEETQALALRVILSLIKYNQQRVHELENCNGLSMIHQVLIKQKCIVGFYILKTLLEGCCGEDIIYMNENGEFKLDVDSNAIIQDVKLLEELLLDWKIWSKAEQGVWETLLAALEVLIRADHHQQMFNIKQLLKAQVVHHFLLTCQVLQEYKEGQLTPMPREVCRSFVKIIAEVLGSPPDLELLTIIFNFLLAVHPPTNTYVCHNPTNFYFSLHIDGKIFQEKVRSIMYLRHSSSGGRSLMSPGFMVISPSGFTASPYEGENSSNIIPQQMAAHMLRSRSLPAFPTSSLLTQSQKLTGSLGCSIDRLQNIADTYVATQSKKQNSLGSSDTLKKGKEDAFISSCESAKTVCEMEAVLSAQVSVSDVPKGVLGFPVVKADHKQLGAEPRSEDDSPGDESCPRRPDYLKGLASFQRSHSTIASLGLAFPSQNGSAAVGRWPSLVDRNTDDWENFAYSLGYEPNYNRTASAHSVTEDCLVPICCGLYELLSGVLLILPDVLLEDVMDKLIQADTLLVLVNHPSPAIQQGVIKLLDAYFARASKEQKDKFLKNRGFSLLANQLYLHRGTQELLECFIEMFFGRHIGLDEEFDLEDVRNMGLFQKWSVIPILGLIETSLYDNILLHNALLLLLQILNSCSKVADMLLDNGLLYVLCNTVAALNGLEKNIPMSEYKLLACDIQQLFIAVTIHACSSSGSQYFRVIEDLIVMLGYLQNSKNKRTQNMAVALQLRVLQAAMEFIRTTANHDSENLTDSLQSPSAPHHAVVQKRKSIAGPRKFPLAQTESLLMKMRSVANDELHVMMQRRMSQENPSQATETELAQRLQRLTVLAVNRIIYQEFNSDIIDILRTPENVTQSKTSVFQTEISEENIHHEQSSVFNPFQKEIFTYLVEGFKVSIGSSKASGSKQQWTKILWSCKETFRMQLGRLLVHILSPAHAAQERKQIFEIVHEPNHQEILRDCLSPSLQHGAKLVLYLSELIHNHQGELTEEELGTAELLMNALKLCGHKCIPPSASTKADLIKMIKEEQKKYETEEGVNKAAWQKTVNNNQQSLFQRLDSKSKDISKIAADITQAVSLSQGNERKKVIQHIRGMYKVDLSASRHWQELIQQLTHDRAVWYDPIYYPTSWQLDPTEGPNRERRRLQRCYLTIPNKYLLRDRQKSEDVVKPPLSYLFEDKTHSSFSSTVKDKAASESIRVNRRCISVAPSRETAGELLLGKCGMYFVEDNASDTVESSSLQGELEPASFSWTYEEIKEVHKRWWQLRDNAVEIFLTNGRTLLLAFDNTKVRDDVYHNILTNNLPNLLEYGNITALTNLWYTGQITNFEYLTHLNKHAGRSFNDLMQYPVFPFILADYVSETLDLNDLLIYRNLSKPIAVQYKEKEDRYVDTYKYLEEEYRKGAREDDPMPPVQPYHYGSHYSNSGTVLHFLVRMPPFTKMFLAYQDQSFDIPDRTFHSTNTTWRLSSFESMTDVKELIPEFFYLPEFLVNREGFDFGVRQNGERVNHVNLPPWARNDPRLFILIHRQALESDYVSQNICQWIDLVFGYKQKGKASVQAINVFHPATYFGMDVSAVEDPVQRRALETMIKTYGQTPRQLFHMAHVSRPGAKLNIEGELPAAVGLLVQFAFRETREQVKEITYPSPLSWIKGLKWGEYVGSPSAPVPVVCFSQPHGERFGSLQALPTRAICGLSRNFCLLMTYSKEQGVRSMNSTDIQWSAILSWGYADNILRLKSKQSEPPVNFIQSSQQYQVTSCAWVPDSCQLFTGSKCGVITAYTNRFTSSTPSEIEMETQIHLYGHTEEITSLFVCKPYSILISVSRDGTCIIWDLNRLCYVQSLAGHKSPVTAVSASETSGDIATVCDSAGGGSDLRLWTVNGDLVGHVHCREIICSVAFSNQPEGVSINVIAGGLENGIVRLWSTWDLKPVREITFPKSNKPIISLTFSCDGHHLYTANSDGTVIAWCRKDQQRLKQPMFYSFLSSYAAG

Compound in the first test: Cn1cncc1[C@@](N)(c1ccc(Cl)cc1)c1ccc2c(c1)c(-c1cccc(Cl)c1)cc(=O)n2C [tipifarnib]
The test can be described thus: log2 fold change, soluble protein after heating vs DMSO (PISA); higher = thermal stabilisation; K562 cells, 10 uM, 30 min; active = over 0.2 and 3.5 SD of the protein, either way, in both replicates (recomputed). An outline of the steps:
(§1)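 K562 cells at 2×10^6 cells/mL were treated for 30 min with 10 μM compound, and aliquots were heated for 3 min over 48°C-58°C before pooling. Extraction used PBS with 0.5% NP-40 at 4°C, and soluble protein was the supernatant after 21,000xg for 90 min, measured by TMTpro 16plex LC-MS/MS with channel sums equalised. Thermal stability values, relative to control samples and from duplicates, are log2 fold changes.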
With MANEA (UniProt Q5SRI9), the log2 fold change was inactive: 0.039. Same read-out and setting: under LYL1 (UniProt P12980) stands inactive: -0.036.

Regarding MARK2 (UniProt E9PC69), the log2 fold change is inactive: -0.215. The same measure, in the same setting: the figure for LSM8 (UniProt O95777) is inactive: 0.017.

For MAN2B2 (UniProt Q9Y2E5), the log2 fold change is inactive: 0.093. On the same count and under the same terms, under MAPK1 (UniProt P28482) stands inactive: -0.009; under LSM6 (UniProt P62312), inactive: -0.016; under LYSMD3 (UniProt Q7Z3D4), inactive: -0.086. Same read-out and setting: under MADD isoform 2 (UniProt Q8WXG6) stands inactive: -0.075. The same measure, in the same setting: the figure for LYRM4 (UniProt Q9HD34) is inactive: -0.087. For the target LYN (UniProt P07948), the log2 fold change was inactive: -0.005.

For the target MAD2L1BP isoform 3 (UniProt Q15013), the log2 fold change was inactive: -0.045. Same read-out and setting: the figure for MACO1 (UniProt Q8N5G2) is inactive: -0.021; for LYZ (UniProt P61626) it is inactive: -0.176. MAP4K5 (UniProt Q9Y4K4): the log2 fold change was inactive: -0.146. Same read-out and setting: under MAP3K10 (UniProt Q02779) stands inactive: -0.202. Still for that read-out and setting: under MAPK6 (UniProt Q16659) stands inactive: -0.064; under LTBR (UniProt P36941), inactive: 0.03; under LRRC8E (UniProt Q6NSJ5), inactive: 0.046. Consider MAP3K2 (UniProt Q9Y2U5), for which the log2 fold change is inactive: 0.02. The same measure, in the same setting: the figure for LRRC8B (UniProt Q6P9F7) is inactive: 0.244; for MAP3K4 isoform 2 (UniProt Q9Y6R4) it is inactive: -0.032. Regarding LSM10 (UniProt Q969L4), the log2 fold change is inactive: 0.008.

In the case of MAD1L1 (UniProt Q9Y6D9), the log2 fold change is inactive: -0.235. Same read-out and setting: the figure for MAP4K2 (UniProt Q12851) is inactive: -0.048. On the same count and under the same terms, under MAGEA1 (UniProt P43355) stands inactive: -0.07; under MAP3K20 (UniProt Q9NYL2), inactive: -0.013; under LRWD1 (UniProt Q9UFC0), inactive: -0.145.

Compound in a further test: FC(F)(F)c1ccc(/C=C/c2nc(COc3ccc(CCCCn4ccnn4)cc3)co2)cc1 [mubritinib]
Described as above. An outline of the steps: as §1
Consider MANEA (UniProt Q5SRI9), for which the log2 fold change was inactive: 0.011. In the case of LSM5 (UniProt Q9Y4Y9), the log2 fold change is inactive: 0.298. The same measure, in the same setting: under LYL1 (UniProt P12980) stands inactive: -0.224; under LSM8 (UniProt O95777), inactive: 0.038; under MAFF (UniProt Q9ULX9), inactive: 0.093. On the same count and under the same terms, under MAN2B2 (UniProt Q9Y2E5) stands inactive: 0.147; under MAPK1 (UniProt P28482), inactive: 0.04.

In the case of LSM6 (UniProt P62312), the log2 fold change is inactive: 0.009. On to LYSMD3 (UniProt Q7Z3D4), for which the log2 fold change is inactive: 0. Still for that read-out and setting: the figure for MADD isoform 2 (UniProt Q8WXG6) is inactive: 0.099; for LYRM4 (UniProt Q9HD34) it is inactive: 0.047; for LYN (UniProt P07948) it is inactive: -0.003. Regarding MAP11 (UniProt Q8WVR3), the log2 fold change was inactive: 0.013. Regarding LYST (UniProt Q99698), the log2 fold change is inactive: -0.238. The same measure, in the same setting: under MAD2L1BP isoform 3 (UniProt Q15013) stands inactive: 0.069; under MACO1 (UniProt Q8N5G2), inactive: 0.029. Same read-out and setting: the figure for LYZ (UniProt P61626) is inactive: 0.288; for MAP4K5 (UniProt Q9Y4K4) it is inactive: 0.022. Same read-out and setting: under MAPK6 (UniProt Q16659) stands inactive: 0.093; under LRRC8E (UniProt Q6NSJ5), inactive: -0.008; under MAP3K2 (UniProt Q9Y2U5), inactive: -0.177. Turning to LRRC8B (UniProt Q6P9F7), the log2 fold change was inactive: -0.035. Same read-out and setting: under MAP3K4 isoform 2 (UniProt Q9Y6R4) stands inactive: 0.016.

Turning to MAD1L1 (UniProt Q9Y6D9), the log2 fold change is inactive: -0.129. Still for that read-out and setting: under MAGEA1 (UniProt P43355) stands inactive: 0.009; under MAP3K20 (UniProt Q9NYL2), inactive: -0.041. As for LRWD1 (UniProt Q9UFC0), the log2 fold change was inactive: -0.013.
